Assay results published in PubChem BioAssay AID1671190 (National Center for Advancing Translational Sciences (NCATS), 2021).
About 6,100 (1.1%) of roughly 580,000 compounds were called active. This list was built around the results that the source calls inconclusive (neither active nor inactive); the mix of calls is not that of the screen. Calls come from the whole dose curve; as a rule, active = well fitted inhibition curve with a large enough effect; inconclusive = small, poorly fitted or top-dose-only effect, or another doubt; inactive = no such curve, though single readings can be large or run the other way. Potencies of inconclusive entries are doubtful fits and often do not repeat.

By UniProt entry, the sequences of proteins in these tests, tags left out. Where a name states a change or a piece, a line headed by the entry shows the natural chain unless it says otherwise.
UniProt P18054: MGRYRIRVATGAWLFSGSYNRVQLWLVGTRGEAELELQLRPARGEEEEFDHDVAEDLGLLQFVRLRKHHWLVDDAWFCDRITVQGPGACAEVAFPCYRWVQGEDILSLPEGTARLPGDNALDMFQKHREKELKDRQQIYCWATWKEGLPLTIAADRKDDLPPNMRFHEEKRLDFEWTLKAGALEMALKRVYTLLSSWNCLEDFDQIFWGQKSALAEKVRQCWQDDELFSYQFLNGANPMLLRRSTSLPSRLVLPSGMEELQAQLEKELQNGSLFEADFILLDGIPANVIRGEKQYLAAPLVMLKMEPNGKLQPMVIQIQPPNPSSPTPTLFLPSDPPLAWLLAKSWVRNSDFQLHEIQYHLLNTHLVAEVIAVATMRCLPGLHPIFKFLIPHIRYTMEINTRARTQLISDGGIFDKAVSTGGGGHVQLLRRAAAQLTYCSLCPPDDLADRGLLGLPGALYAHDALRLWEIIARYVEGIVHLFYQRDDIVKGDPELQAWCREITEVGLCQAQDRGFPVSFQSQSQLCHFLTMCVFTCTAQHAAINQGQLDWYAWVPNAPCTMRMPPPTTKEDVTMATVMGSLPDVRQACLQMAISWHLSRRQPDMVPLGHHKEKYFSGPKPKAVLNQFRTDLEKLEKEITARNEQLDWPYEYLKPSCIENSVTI

These molecules were tested against Polyunsaturated fatty acid lipoxygenase ALOX12 (Homo sapiens) (UniProt P18054) (assay: Primary qHTS assay for inhibitors of human arachidonate 12S-lipoxygenase (ALOX12): Round 2). Conditions: purified 12hLO, xylenol orange hydroperoxide absorbance; activity change, negative = inhibition: at 108 µM (top of the series) unless noted.
How it was run: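 Purified human 12hLO at 150 nM in 25 mM Hepes, 0.01% Triton X-100, pH 7.0, preincubated 15 min at room temperature with compound. Reaction started with 40 uM arachidonic acid, 30 min at room temperature. Hydroperoxide measured by Fe-xylenol orange, 573/405 nm absorbance ratio.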
% is set by controls: 0 for no effect and ±100 for the full control effect; potency is the fitted concentration of half-maximal effect.

Structure (SMILES) | activity change, negative = inhibition | Potency
CN(C)C[C@@H]1CN(Cc2ccccc2)C[C@H]1NC(=O)CCn1cccn1 | inactive: 11.7% | –
O=CNc1cc(-c2cccc(F)c2)cn2c(-c3ccc(F)cc3)cnc12 | – | inconclusive: 112 µM [inhibitor, single point]
O=C1CNC(=O)N1c1ccc(Cl)cc1 | inactive: 0% | –
COc1ccc(Cl)cc1NC(=O)Cn1c(=O)n(-c2ccc(C)cc2)c(=O)c2ccc(C(=O)NCc3ccccc3Cl)cc21 | – | inconclusive: 89.1 µM [inhibitor, partial curve, poor fit]
COc1ccc(/C=C(\C#N)c2nc3cc(C)c(C)cc3[nH]2)cc1Br | – | inconclusive: 89.1 µM [inhibitor, single point]
CC(CCc1ccccc1)NCc1ccc(C(=O)O)cc1 (centres undefined) | inconclusive: -37.6% [inhibitor] | –
Cc1ccccc1NCC(=O)N/N=C/c1ccc([N+](=O)[O-])cc1 | – | inconclusive: 28.2 µM [inhibitor, partial curve, poor fit]
Cc1cc(C(=O)N2CCC2(C)C(=O)NS(=O)(=O)c2ccc(F)cc2F)nn1C (centres undefined) | – | inconclusive: 89.1 µM [inhibitor, single point]
O=C(COc1ccc(F)cc1)N1CCC(c2noc(C3CC3)n2)C1 (centres undefined) | – | inconclusive: 25.1 µM [inhibitor, full curve, poor fit]
COc1cc(O)c(C(CC(=O)N2CCCC(C)C2)c2ccc3c(c2)OCO3)c(OC)c1 (centres undefined) | – | inconclusive: 50.1 µM [inhibitor, partial curve, poor fit]
Cc1ccc(C)c(NC(=O)COC(=O)c2nc(-c3ccccc3)oc2C)c1 | inactive: -27.7% | –
Cc1nc(-c2c[nH]c3ccccc23)c(C)s1 | – | inconclusive: 44.7 µM [inhibitor, partial curve, poor fit]
Cc1noc(C)c1-c1ccc2ncnc(NCc3cccs3)c2c1 | – | inconclusive: 6.31 µM [inhibitor, full curve, poor fit]
CCCn1cc(S(=O)(=O)c2ccc(OC)cc2)c(=O)c2cc(OCC)ccc21 | inactive: 6.32% | –
CC(=O)c1ccc2noc(-c3ccc(Cl)cc3)c2c1 | – | inconclusive: 100 µM [inhibitor, single point]
O=C1c2cccc3cccc(c23)C(=O)N1c1cccc(O)c1 | – | inconclusive: 100 µM [inhibitor, partial curve, poor fit]
CCN(CC)S(=O)(=O)c1ccc(NC(=O)c2c(C)oc3ncnc(N4CCCCC4)c23)cc1 | – | inconclusive: 126 µM [inhibitor, partial curve, poor fit]
CC(C)c1ccc(-c2nonc2NC(=O)c2ccco2)cc1 | inactive: -57.2% | –
CC1(C)CN(Cc2nnc(-c3cccc(F)c3)o2)CC[C@]1(C)O | inactive: 7.23% | –
CCC(NC(=O)c1sccc1C)c1ccc(C)cc1 (centres undefined) | – | inconclusive: 44.7 µM [inhibitor, partial curve, poor fit]
Cc1c(C)c(C)c2[nH]c(=S)[nH]c2c1C | – | inconclusive: 112 µM [inhibitor, single point]
CCN(CC)CCN(C(=O)c1ccco1)c1nc2ccc(F)cc2s1 | – | inconclusive: 50.1 µM [inhibitor, partial curve, poor fit]
Cc1ccccc1N=Nc1c(C)[nH]n(C(N)=S)c1=O | – | inconclusive: 50.1 µM [inhibitor, partial curve, poor fit]

Quoted from the results shown for reference:
Structure (SMILES) | activity change, negative = inhibition | Potency
COc1ccc(/C=C(\C#N)c2nc3cc(C)c(C)cc3[nH]2)cc1Br | – | inconclusive: 89.1 µM [inhibitor, single point]
CC(CCc1ccccc1)NCc1ccc(C(=O)O)cc1 (centres undefined) | inconclusive: -37.6% [inhibitor] | –
Cc1ccccc1NCC(=O)N/N=C/c1ccc([N+](=O)[O-])cc1 | – | inconclusive: 28.2 µM [inhibitor, partial curve, poor fit]

Next part:

Structure (SMILES) | activity change, negative = inhibition | Potency
CCOc1ccc(-c2cc(C(=O)O)c3ccccc3n2)cc1 | – | inconclusive: 79.4 µM [inhibitor, single point]
CC(=Nc1ccccc1C)C1=C(O)CSC1=O | inactive: -10.6% [at 57.4 µM] | –
NC(=O)c1c(NC(NC(=O)c2ccco2)(C(F)(F)F)C(F)(F)F)sc2c1CCCC2 | inactive: 0% [at 57.4 µM] | –
O=C(CN1CCN(c2ccccc2)CC1)Nc1ccc2c(c1)OCCO2 | inactive: -8.68% | –
O=c1c2c(ncn2C2CCCC2)n(Cc2ccccc2)c(=O)n1CCOc1ccccc1 | inactive: 11.4% | –
CCc1ccccc1NC(=O)CN1CCN(C(=O)CNC(=O)c2ccc(N3CCCC3=O)cc2)CC1 | – | inconclusive: 35.5 µM [inhibitor, partial curve, poor fit]
CC(C)C[C@H](NC(=O)c1cc2cc(Cl)ccc2n1C)C(=O)N1CCC[C@H]1C(=O)O | – | inconclusive: 44.7 µM [inhibitor, partial curve, poor fit]
COc1ccc(C(=O)N/N=C(\Cc2ncc[nH]2)c2ccccc2)cc1 | inactive: 6.47% | –
O=C(NCC1CC1)Nc1cccc(Cl)c1 | inactive: 10.3% | –
CC(C)c1nccn1S(=O)(=O)c1cccc([N+](=O)[O-])c1 | inactive: -5.81% | –
COCCN1C(=O)C(O)=C(C(=O)c2cccs2)C1c1ccccc1 (centres undefined) | – | inconclusive: 44.7 µM [inhibitor, partial curve, poor fit]
COc1ccccc1C/C(N)=N/OC(=O)/C=C/c1ccccc1 | inactive: 2.18% | –
COc1ccc(C2NC(=S)NC(O)(C(F)(F)F)C2C(=O)c2cccs2)cc1 (centres undefined) | – | inconclusive: 44.7 µM [inhibitor, partial curve, poor fit]
CCOc1ccc2c(c1)C(=O)C(=O)N2CC1COc2ccccc2O1 (centres undefined) | inactive: 0% | –
CN(C)c1ccnc(Oc2ccc(Cl)cc2)c1C#N | – | inconclusive: 100 µM [inhibitor, partial curve, poor fit]
O=C(Cc1cccc(F)c1)N1CCOCC1 | inactive: 0% | –
CCOc1ccc(C2(c3cccc(F)c3)CCCCC2)cc1 | inactive: 18.2% | –
COC(=O)N1CCC2(CC1)CN(C(=O)Nc1cccc(F)c1)C2 | inactive: 12.3% [at 57.4 µM] | –
O=c1cc(-c2ccccc2Cl)oc2ccc(Cl)cc12 | inactive: -14% | –
Cc1ccc(C)c(N2CCN(S(=O)(=O)c3cc(C(=O)Nc4ccccc4C(F)(F)F)ccc3F)CC2)c1 | inactive: -15.8% | –
COC(=O)c1ccc2nc(-c3ccc(C)cc3)c(Cc3ccccc3OC)n2c1 | – | inconclusive: 44.7 µM [inhibitor, partial curve, poor fit]
Cc1noc(C)c1CSCC(=O)N(C)CC(=O)Nc1ccccc1Br | inactive: -4.09% | –
CCc1ccc(S(=O)(=O)Nc2cc3c(cc2C)n(C)c(=O)c(=O)n3C)cc1 | – | inconclusive: 50.1 µM [inhibitor, partial curve, poor fit]

Structure (SMILES) | activity change, negative = inhibition | Potency
CCOC(=O)c1sc(NS(=O)(=O)c2cc(C)ccc2C)nc1C | – | inconclusive: 7.94 µM [inhibitor, partial curve, poor fit]
Cc1[nH]c2c(ccc3ccccc32)c1C | – | active: 15.8 µM
O=C1Nc2ccccc2CC12CCCCN2Cc1ccc(C(F)(F)F)cc1 (centres undefined) | inactive: 46.2% | –
COc1ccc(C(=S)N2CCCC2)cc1 | – | inconclusive: 31.6 µM [inhibitor, partial curve, poor fit]
Cn1nc(C(F)(F)F)c2cc(C(=O)Nc3ccc(C(F)(F)F)cc3)sc21 | – | inconclusive: 112 µM [inhibitor, single point]
C[C@H]1CN([C@@H](C)CO)C(=O)CCCn2nncc2CO[C@@H]1CN(C)S(=O)(=O)c1ccc(-c2ccccc2)cc1 | – | inconclusive: 79.4 µM [inhibitor, partial curve, poor fit]
Cc1cc(CN2CCN(CCC#N)CC2)c(O)c(C2(C)CCCCC2)c1 | – | inconclusive: 56.2 µM [inhibitor, partial curve, poor fit]
CC(C)CNC(=O)N1CCCC(c2nn[nH]n2)C1 (centres undefined) | – | inconclusive: 10 µM [inhibitor, partial curve]
CCOC(=O)C1=C(COC(=O)CSc2ccc(C)cc2C)NC(=O)NC1C (centres undefined) | – | inconclusive: 126 µM [inhibitor, single point]
CC1(C(=O)OCC(=O)Nc2nc(-c3ccc(F)c(F)c3)cs2)CC1(Cl)Cl (centres undefined) | – | active: 56.2 µM
NCCC(=O)N1CCC(n2nccc2NC(=O)Nc2ccccc2Cl)CC1 | inactive: 2.84% | –
Cc1cccc(C(=O)Nc2ccc3nc(SCC(=O)N4CCCC4)sc3c2)c1 | – | inconclusive: 63.1 µM [inhibitor, partial curve, poor fit]
O=C(CSc1nc(=O)[nH]c2c1CCC2)Nc1cc(C(F)(F)F)ccc1Cl | – | inconclusive: 112 µM [inhibitor, partial curve, poor fit]
CCOC(=O)C[C@@H]1C[C@@H](C(C)C)[C@H](CNS(=O)(=O)c2ccc(NC(C)=O)cc2)C=C1C | – | inconclusive: 56.2 µM [inhibitor, partial curve, poor fit]
c1ccc2sc([C@H]3CCN(Cc4ccc5c(c4)OCO5)C3)nc2c1 | – | inconclusive: 17.8 µM [inhibitor, full curve]
Cc1ccc(C(=O)c2ccccc2C(=O)OCCOc2ccc(Cl)cc2Cl)cc1 | inactive: -5.33% | –
CN(C)C(=O)c1cccc(-c2cnc3c(NC=O)cc(-c4ccccc4F)cn23)c1 | – | inconclusive: 6.31 µM [inhibitor, full curve]
CC(C)CN(C(=O)CN(C)S(=O)(=O)c1ccc(Cl)cc1)C1CCS(=O)(=O)C1 (centres undefined) | – | inconclusive: 50.1 µM [inhibitor, partial curve, poor fit]
C=CCn1c(SCCN2CCOCC2)nc2c1c(=O)[nH]c(=O)n2C | – | inconclusive: 56.2 µM [inhibitor, partial curve, poor fit]
COc1ccc(OC(C)c2nc(-c3ccc(Br)cc3)no2)cc1 (centres undefined) | – | inconclusive: 141 µM [inhibitor, partial curve, poor fit]
CSc1nc(O)c(/C=C2\C=Nc3ccccc32)[nH]1 | – | inconclusive: 89.1 µM [inhibitor, partial curve, poor fit]
O=C(CCc1ncc(-c2ccccc2)o1)Nc1ccc(O)c2ccccc12 | – | inconclusive: 35.5 µM [inhibitor, single point]
CCN(C(=O)CSc1nc(CN2CCOCC2)nc2ccccc12)C1CCS(=O)(=O)C1 (centres undefined) | – | inconclusive: 79.4 µM [inhibitor, partial curve, poor fit]
